Experimental findings from patent US4529737A, “Analgesic and anti-inflammatory arylalkanoic acid phthalidyl esters and pharmaceutical compositions thereof” (priority 1979, dated 1985) are described below.

Series [1] is described as follows: in vivo. Conditions: mouse.
Series [2] in a line: in vivo. Conditions: rat.

For `COc1ccc2cc([C@H](C)C(=O)O)ccc2c1` [Compound II, d-2-(6-methoxy-2-naphthyl)propionic acid, reference compound], the LD50 was 1190 mg/kg in “in vivo [1]” and 575 mg/kg in the series “in vivo [2]”.
